# Experimental data from patent US7557244B2, “Substituted biphenyl carboxylic acids and derivatives thereof” (Ortho-McNeil Pharmaceutical, Inc., priority 2006, dated 2009).
# Some results were stated once for a whole list of compounds, not compound by compound.
# Tested on: γ-secretase
# Experiment: Screening for γ-secretase-modulating activity, Aβ 42 in SKNBE2 cells carrying APP 695-wild type
# Type: cell-based
# Conditions: read-out: IC50-Values on the γ-Secretase Activity, activity range
# Protocol: Screening of the Compounds of the Invention for γ-Secretase-Modulating Activity
# Screening was carried out using SKNBE2 cells carrying the APP 695-wild type, grown in DMEM/NUT-mix F12 (HAM) provided by Gibco (cat no. 31330-38) containing 5% Serum/Fe supplemented with 1% non-essential amino acids.
# Cells were grown to near confluency.
# The screening was performed using the assay as described in Citron et al (1997) Nature Medicine 3: 67.
# IC50-Values of Selected Compounds of the Invention on the γ-Secretase Activity.
row,SMILES,IC50 [µM]
1,"CCCC(C(=O)O)c1cc(Oc2ccc(F)cc2)cc(-c2ccc(C(F)(F)F)cc2)c1 (centres unmarked) [example I, 2-(5-(4-fluorophenoxy)-4′-trifluoromethyl-biphenyl-3-yl)-pentanoic acid]",10 to 100
2,"CCCC(C(=O)O)c1cc(Oc2ccccc2)cc(-c2ccc(C(F)(F)F)cc2)c1 (centres unmarked) [example ii, 2-(5-(phenoxy)-4′-trifluoromethyl-biphenyl-3-yl)-pentanoic acid]",10 to 100
